From patent publication CN115724981A
Results are given in words; binding and its absence hold for the method and conditions named. Some entries that bind do so weakly or less than the wild type.

Protein sequences, listed by entry. Tags and fused reporters are not part of them. Residues count along the entry.
UniProt P11802, residues 2-303: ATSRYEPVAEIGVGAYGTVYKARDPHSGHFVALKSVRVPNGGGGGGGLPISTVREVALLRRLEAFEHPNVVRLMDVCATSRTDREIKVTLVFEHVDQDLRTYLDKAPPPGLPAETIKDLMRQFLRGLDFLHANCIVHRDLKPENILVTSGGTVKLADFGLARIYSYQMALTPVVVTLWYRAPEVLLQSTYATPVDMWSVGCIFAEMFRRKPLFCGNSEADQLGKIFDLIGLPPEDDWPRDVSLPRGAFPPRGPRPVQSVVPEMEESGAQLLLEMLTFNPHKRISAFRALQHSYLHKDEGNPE

Tests used:
[1] = target: CDK4(细胞周期蛋白依赖性激酶4) in结肠癌组织 (human) (UniProt P11802); experiment: IHC on colon cancer sections, antibody at 0.08 μg/mL
[2] = target: CDK4(细胞周期蛋白依赖性激酶4) in结肠癌组织 (human) (UniProt P11802); experiment: IHC on colon cancer sections

binding [1]: binds | binding [2]: binds
B1: CDK4重组抗体 (antibody, mouse IgG1, kappa, V domains shown)
VH: QVQLKQSGPGLVQPSQSLSITCTVSDFSLTRYAIHWVRQSPGKGLEWLGVIWRGGNTDYNAVFMSRLSITKDTSKSQVFFKMNSLQADDTAIYYCAKDGYGTMDYWGQGTSVTVSS
VL: QIVLTQSPAIMSASPGEKVTITCSASSSVSYMHWFQQKPGTSPKLWIYSTSNLASGVPARFSGSGSGTSYSLTISRMEAEDAATYYCQQRSSYPPTFGGGTKLEIKR
